log2 fold change data for 27 targets are collected here from the supplement of paper PMC12819154, “High-throughput peptide-centric local stability assay extends protein–ligand identification to membrane proteins, tissues and bacteria” (Nature Structural & Molecular Biology, 2025).

By UniProt entry, the sequences of proteins in these tests, tags left out. Where a name states a change or a piece, a line headed by the entry shows the natural chain unless it says otherwise.
UniProt Q6ZNX1: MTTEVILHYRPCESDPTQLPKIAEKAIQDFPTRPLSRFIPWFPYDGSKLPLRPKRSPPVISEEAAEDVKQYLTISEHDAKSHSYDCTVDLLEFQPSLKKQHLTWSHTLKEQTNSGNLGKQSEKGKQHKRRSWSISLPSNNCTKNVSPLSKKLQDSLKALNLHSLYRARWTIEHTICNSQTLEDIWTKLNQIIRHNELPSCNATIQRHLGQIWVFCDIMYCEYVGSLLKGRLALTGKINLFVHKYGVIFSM
UniProt Q7RTT6, whole entry: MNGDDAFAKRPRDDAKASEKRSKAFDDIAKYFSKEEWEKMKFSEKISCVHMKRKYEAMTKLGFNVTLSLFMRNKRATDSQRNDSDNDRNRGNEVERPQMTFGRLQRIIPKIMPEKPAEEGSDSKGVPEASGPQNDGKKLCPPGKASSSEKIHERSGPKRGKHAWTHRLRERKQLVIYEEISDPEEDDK
UniProt Q7Z3U7: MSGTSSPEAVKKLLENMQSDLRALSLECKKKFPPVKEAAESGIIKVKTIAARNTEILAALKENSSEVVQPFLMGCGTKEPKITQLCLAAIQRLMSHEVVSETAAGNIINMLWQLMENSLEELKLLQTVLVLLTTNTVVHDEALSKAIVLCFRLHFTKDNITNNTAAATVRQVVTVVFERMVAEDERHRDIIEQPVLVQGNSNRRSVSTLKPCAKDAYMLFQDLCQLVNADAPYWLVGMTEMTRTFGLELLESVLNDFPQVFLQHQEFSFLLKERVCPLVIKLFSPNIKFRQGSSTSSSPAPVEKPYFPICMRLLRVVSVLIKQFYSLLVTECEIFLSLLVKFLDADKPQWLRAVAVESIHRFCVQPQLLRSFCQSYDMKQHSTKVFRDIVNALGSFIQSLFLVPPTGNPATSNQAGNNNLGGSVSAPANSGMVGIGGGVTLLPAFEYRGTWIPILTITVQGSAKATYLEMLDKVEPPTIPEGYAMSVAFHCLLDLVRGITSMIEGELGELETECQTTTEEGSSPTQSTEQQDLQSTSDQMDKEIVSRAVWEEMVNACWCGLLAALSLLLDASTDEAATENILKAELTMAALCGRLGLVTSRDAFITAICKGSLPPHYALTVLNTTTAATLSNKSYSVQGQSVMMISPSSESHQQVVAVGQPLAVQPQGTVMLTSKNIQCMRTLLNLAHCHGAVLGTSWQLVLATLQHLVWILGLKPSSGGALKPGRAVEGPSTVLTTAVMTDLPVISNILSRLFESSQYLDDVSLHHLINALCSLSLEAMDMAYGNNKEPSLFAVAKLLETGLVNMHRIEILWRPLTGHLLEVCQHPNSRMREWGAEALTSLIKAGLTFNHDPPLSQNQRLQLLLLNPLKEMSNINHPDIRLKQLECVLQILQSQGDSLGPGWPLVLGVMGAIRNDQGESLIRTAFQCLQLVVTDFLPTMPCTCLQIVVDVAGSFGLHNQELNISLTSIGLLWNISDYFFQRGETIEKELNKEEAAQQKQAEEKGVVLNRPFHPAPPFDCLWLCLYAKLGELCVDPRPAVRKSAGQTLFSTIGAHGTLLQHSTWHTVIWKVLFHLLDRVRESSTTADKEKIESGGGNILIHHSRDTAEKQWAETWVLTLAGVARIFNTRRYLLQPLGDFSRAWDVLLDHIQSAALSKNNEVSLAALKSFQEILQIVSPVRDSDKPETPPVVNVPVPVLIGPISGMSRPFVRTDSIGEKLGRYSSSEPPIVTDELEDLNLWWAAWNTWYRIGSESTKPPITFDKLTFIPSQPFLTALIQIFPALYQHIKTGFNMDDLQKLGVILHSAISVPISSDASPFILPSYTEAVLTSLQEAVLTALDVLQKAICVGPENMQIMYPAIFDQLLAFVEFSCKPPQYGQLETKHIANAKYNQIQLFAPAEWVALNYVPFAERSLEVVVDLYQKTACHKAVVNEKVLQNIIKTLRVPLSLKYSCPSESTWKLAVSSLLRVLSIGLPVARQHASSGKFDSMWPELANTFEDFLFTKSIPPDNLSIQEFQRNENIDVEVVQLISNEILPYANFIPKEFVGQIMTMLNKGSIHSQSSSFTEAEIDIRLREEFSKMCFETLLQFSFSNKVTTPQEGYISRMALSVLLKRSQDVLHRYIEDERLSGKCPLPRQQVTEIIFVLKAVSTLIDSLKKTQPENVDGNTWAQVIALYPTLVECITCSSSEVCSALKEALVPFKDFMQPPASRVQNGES
UniProt Q7RTT3, whole entry: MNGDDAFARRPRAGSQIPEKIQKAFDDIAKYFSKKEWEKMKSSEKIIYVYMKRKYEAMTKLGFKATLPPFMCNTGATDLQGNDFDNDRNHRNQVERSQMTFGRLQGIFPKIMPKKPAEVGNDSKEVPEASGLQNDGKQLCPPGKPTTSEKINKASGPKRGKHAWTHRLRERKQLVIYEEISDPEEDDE
UniProt Q6UXG8: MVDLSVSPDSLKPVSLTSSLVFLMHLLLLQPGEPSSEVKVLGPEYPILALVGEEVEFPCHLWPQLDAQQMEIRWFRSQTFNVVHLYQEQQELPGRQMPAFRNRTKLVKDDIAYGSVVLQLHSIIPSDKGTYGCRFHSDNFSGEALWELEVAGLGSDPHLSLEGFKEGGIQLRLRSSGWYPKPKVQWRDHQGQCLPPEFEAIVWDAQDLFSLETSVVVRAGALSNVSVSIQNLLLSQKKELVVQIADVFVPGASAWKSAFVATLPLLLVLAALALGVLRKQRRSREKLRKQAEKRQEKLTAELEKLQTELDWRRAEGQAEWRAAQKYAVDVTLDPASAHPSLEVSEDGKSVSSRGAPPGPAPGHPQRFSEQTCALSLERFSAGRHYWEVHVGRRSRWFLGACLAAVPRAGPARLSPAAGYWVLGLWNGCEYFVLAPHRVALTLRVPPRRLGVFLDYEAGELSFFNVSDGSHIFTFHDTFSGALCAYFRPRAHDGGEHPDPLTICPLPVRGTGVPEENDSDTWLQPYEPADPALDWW
UniProt Q7L2E3: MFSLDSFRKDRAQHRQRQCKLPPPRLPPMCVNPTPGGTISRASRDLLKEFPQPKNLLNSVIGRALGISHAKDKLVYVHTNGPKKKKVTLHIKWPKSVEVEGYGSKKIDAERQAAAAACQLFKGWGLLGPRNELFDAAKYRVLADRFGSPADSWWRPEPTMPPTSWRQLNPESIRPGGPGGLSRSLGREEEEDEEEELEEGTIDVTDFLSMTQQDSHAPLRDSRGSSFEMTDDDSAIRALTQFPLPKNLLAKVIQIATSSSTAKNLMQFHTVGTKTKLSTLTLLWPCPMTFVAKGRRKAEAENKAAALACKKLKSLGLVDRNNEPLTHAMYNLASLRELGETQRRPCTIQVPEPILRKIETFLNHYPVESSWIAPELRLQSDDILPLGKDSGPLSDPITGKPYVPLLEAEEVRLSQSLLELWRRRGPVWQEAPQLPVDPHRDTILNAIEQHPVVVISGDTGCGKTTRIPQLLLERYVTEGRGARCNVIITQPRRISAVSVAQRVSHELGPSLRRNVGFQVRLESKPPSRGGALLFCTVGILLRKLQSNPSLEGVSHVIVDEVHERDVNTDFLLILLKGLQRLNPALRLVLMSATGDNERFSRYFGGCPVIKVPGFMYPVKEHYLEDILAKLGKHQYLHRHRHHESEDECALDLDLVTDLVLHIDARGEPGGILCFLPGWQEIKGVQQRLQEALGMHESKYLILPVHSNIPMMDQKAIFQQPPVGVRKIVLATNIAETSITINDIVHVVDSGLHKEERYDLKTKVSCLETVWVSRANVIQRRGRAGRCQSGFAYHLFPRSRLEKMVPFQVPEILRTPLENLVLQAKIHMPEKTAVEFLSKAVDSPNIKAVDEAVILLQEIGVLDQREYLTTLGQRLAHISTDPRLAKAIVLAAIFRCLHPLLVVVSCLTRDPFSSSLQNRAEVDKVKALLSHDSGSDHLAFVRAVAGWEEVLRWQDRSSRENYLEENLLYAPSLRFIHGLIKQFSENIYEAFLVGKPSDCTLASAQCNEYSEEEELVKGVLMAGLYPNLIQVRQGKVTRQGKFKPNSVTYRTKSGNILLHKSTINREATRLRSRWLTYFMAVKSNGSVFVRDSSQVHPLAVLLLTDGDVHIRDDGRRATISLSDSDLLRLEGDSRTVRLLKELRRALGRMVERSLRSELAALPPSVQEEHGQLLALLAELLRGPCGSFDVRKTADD
UniProt Q6ZWE6: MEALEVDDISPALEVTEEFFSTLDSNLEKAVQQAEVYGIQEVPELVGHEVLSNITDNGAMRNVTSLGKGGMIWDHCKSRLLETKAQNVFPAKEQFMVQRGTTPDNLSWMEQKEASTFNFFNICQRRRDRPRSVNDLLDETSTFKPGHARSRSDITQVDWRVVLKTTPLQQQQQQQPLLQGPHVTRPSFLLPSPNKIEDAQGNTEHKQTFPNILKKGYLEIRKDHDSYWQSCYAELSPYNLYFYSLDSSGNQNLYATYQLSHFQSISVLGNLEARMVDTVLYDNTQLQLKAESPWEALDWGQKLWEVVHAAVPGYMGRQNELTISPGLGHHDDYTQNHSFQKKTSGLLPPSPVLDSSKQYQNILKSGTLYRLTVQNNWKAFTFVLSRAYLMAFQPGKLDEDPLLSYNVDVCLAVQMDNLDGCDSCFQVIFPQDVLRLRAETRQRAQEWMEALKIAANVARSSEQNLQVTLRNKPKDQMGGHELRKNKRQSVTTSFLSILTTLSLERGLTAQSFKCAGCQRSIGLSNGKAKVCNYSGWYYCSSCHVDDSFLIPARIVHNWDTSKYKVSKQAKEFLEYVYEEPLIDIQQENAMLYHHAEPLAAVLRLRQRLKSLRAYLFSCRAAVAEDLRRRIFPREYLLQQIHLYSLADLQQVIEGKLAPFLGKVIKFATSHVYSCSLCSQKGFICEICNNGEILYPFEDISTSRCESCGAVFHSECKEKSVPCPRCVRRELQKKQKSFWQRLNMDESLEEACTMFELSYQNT
UniProt Q7Z6B0: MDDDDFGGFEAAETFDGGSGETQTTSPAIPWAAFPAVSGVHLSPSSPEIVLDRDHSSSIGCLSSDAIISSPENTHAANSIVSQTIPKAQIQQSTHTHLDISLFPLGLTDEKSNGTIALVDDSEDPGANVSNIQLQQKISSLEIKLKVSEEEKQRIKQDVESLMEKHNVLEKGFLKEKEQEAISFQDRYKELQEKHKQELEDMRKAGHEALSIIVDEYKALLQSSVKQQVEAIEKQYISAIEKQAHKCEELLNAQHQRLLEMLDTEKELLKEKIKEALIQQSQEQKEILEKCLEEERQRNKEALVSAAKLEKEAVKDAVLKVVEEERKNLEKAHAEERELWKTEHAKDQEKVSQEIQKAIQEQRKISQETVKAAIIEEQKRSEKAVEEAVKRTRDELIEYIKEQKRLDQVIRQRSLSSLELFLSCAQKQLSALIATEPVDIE
UniProt Q7L576: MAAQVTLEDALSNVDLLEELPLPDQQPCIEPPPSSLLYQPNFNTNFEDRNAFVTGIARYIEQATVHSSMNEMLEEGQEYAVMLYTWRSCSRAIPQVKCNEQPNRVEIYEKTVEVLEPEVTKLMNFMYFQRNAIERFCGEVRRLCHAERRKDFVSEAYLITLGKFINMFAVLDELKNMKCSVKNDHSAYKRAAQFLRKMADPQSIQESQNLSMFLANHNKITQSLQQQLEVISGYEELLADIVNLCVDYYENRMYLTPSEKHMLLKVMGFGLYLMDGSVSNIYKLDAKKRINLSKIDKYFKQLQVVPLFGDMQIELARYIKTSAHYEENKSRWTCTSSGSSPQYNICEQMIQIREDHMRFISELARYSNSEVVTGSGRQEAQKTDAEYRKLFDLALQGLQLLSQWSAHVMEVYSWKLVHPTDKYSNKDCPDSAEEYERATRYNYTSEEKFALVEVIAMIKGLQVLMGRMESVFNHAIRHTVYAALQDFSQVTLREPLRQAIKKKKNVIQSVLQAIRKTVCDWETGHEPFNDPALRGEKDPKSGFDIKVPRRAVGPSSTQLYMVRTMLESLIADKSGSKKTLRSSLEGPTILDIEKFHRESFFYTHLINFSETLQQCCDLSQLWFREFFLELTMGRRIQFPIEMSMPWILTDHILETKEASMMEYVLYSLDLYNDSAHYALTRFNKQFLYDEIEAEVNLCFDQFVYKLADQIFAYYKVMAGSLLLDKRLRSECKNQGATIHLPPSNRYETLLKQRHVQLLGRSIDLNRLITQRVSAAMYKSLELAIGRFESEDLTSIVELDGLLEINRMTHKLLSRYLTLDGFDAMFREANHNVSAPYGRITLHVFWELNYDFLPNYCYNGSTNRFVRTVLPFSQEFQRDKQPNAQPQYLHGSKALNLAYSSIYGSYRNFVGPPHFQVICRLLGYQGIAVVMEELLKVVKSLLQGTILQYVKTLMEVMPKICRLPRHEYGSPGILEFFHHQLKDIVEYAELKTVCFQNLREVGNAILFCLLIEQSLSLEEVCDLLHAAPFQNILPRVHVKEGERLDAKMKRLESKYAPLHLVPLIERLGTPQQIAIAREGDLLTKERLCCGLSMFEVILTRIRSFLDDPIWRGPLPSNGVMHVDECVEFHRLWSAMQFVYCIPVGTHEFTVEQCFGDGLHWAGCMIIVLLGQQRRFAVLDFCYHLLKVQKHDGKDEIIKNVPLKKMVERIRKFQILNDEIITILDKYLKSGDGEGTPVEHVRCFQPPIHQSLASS

This is one part of the list. Most values lie at the level of the controls, where differences are scatter.

Compound in this assay: Cc1nc(Nc2ncc(C(=O)Nc3c(C)cccc3Cl)s2)cc(N2CCN(CCO)CC2)n1 [dasatinib]
Kind of assay: log2 fold change of tryptic peptide abundance, ligand vs vehicle (limited proteolysis) (log2 ratio); higher = more trypsin-susceptible (destabilized). The settings on record: ligand concentration: 5 uM; sample: K562 cleared lysate.
On to “UniProt Q7Z2T5 (peptide sequence: MGAHYHCIICSATITRR, peptide start residue: 180)”, for which the log2 fold change came to 0.214. Turning to “SUPT6H (peptide sequence: LDNGVTGFIPTK, peptide start residue: 1232) (UniProt Q7KZ85)”, the log2 fold change was -0.275. Take “UniProt Q6ZNX1 (peptide sequence: AIQDFPTRPLSR, peptide start residue: 26)”: the log2 fold change came to 0.0962. On to “UniProt Q7RTT6 (peptide sequence: YFSKEEWEK, peptide start residue: 31)”, for which the log2 fold change amounted to 0.0239.

On to “GALNT5 (peptide sequence: VAACDPVKPYQK, peptide start residue: 920) (UniProt Q7Z7M9)”, for which the log2 fold change is 0.371. Take “MON1B (peptide sequence: RCTAPGLALSVLAVGGR, peptide start residue: 267) (UniProt Q7L1V2)”: the log2 fold change is 0.291.

Take “PAXIP1 (peptide sequence: ARIEDVPPPTKK, peptide start residue: 849) (UniProt Q6ZW49)”: the log2 fold change was -0.534. In the case of “MON2 (peptide sequence: EALVPFKDFMQPPASR, peptide start residue: 1696) (UniProt Q7Z3U7)”, the log2 fold change came out at 0.52. On to “UniProt Q71F23 (peptide sequence: RSSDTSGNEASEIESVK, peptide start residue: 106)”, for which the log2 fold change amounted to 0.722. With “PARS2 (peptide sequence: VLSLQDKSDDLTCK, peptide start residue: 56) (UniProt Q7L3T8)”, the log2 fold change was -0.221. In the case of “UniProt Q7RTT3 (peptide sequence: KYEAMTK, peptide start residue: 54)”, the log2 fold change was found to be 0.0865. In the case of “C11orf96 (peptide sequence: KSFLQSLECLR, peptide start residue: 394) (UniProt Q7Z7L8)” it was 0.479; in that of “VPS13C (peptide sequence: DFGDSLAR, peptide start residue: 3512) (UniProt Q709C8)”, 0.176.

For “UniProt Q6UXG8 (peptide sequence: LQTELDWR, peptide start residue: 305)”, the log2 fold change was -0.0177. On to “UniProt Q7Z6M4 (peptide sequence: VSEAEFLAR, peptide start residue: 296)”, for which the log2 fold change came out at 0.204. In the case of “UniProt Q86UF2 (peptide sequence: GPGNPLDHQITNER, peptide start residue: 1169)” it was -0.117.

Take “DHX30 (peptide sequence: TKVSCLETVWVSR, peptide start residue: 761) (UniProt Q7L2E3)”: the log2 fold change was 0.966. Turning to “UniProt Q6ZWE6 (peptide sequence: KGYLEIRK, peptide start residue: 215)”, the log2 fold change was found to be 0.151. As to “UniProt Q71UM5 (peptide sequence: DLLHPSLEEEKK, peptide start residue: 6)”, the log2 fold change turned out to be 0.0228. In the case of “UniProt Q6ZU64 (peptide sequence: EEERDEKEEK, peptide start residue: 234)” it was -0.163. Regarding “LDB1 (peptide sequence: KMSGGSTMSSGGGNTNNSNSK, peptide start residue: 300) (UniProt Q86U70)”, the log2 fold change came out at 0.5. As for “CCDC91 (peptide sequence: IKQDVESLMEKHNVLEK, peptide start residue: 155) (UniProt Q7Z6B0)”, the log2 fold change was -0.462. For “PATL1 (peptide sequence: AVPIGTPPK, peptide start residue: 189) (UniProt Q86TB9)”, the log2 fold change came out at 0.174. For “TICRR (peptide sequence: AAAFMGTPQNQTHQQPHVLR, peptide start residue: 1254) (UniProt Q7Z2Z1)”, the log2 fold change was -0.265. As to “UniProt Q7Z494 (peptide sequence: FGNAEQLYK, peptide start residue: 1001)”, the log2 fold change was found to be 0.812. In the case of “GIGYF2 (peptide sequence: RQQEEILRR, peptide start residue: 763) (UniProt Q6Y7W6)”, the log2 fold change was -0.602. In the case of “CYFIP1 (peptide sequence: HTVYAALQDFSQVTLREPLR, peptide start residue: 478) (UniProt Q7L576)” it was 0.649.
